Laboratory results: PubChem BioAssay AID1159584 (Peter MacCallum Cancer Centre, 2016)
Screen: 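Genes whose loss is lethal only together with E-cadherin loss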 (primary screen). System: human MCF10A breast epithelial cells, parental and CDH1-null. Knock-down reagent: siRNA against human genes. Read-out: 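ATP luminescence (CellTiter-Glo) viability per line relative to mean mock wells over all plates, and the ratio of CDH1-null to parental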. Reading the numbers: CDH1-null / parental viability ratio: higher = CDH1-null cells survive relatively better than parental.
The whole screen tested about 18,000 reagents; this is a random part of them. Not all columns of the deposit are shown. Not stated in the record: the amount of reagent, the time to read-out.

target	CDH1-null / parental viability ratio
TJP3 (tight junction protein 3)	1.21
EFCAB14 (EF-hand calcium binding domain 14)	0.91
TAF12 (TATA-box binding protein associated factor 12)	0.88
ZNF512B (zinc finger protein 512B)	0.89
CNTFR (ciliary neurotrophic factor receptor)	0.76
OR2A5 (olfactory receptor family 2 subfamily A member 5)	1.12
DENND2D (DENN domain containing 2D)	0.95
ABL1 (ABL proto-oncogene 1, non-receptor tyrosine kinase)	0.92
TXNDC5 (thioredoxin domain containing 5)	0.79
ZNF354A (zinc finger protein 354A)	1.01
MOBP (myelin associated oligodendrocyte basic protein)	1.01
ZNF517 (zinc finger protein 517)	0.99
RNF113B (ring finger protein 113B)	0.83

Next part (3 carried over from the part before).
target	CDH1-null / parental viability ratio
MOBP (myelin associated oligodendrocyte basic protein)	1.01
ZNF517 (zinc finger protein 517)	0.99
RNF113B (ring finger protein 113B)	0.83
HLA-DOB (major histocompatibility complex, class II, DO beta)	0.9
MRM1 (mitochondrial rRNA methyltransferase 1)	1.19
MAP1LC3A (microtubule associated protein 1 light chain 3 alpha)	1
USO1 (USO1 vesicle transport factor)	0.83
SEC13 (SEC13 homolog, nuclear pore and COPII component)	1.05
PTX4 (pentraxin 4)	1.1
GPR32 (G protein-coupled receptor 32)	1.44
KRT28 (keratin 28)	0.97
GML (glycosylphosphatidylinositol anchored molecule like)	0.86
DEFB4A (defensin beta 4A)	1.3
FGD3 (FYVE, RhoGEF and PH domain containing 3)	1.45
SIM2 (SIM bHLH transcription factor 2)	0.98
YIPF6 (Yip1 domain family member 6)	1.24
IGSF5 (immunoglobulin superfamily member 5)	1
S100G (S100 calcium binding protein G)	0.84
